Results as given in the supplement of paper PMC10849652.
The list shows a part of the results.

Amino acid sequences for entries named in this document (tags omitted). A change or cut given only in a name is not applied to a line headed by its entry.
UniProt Q8NI27: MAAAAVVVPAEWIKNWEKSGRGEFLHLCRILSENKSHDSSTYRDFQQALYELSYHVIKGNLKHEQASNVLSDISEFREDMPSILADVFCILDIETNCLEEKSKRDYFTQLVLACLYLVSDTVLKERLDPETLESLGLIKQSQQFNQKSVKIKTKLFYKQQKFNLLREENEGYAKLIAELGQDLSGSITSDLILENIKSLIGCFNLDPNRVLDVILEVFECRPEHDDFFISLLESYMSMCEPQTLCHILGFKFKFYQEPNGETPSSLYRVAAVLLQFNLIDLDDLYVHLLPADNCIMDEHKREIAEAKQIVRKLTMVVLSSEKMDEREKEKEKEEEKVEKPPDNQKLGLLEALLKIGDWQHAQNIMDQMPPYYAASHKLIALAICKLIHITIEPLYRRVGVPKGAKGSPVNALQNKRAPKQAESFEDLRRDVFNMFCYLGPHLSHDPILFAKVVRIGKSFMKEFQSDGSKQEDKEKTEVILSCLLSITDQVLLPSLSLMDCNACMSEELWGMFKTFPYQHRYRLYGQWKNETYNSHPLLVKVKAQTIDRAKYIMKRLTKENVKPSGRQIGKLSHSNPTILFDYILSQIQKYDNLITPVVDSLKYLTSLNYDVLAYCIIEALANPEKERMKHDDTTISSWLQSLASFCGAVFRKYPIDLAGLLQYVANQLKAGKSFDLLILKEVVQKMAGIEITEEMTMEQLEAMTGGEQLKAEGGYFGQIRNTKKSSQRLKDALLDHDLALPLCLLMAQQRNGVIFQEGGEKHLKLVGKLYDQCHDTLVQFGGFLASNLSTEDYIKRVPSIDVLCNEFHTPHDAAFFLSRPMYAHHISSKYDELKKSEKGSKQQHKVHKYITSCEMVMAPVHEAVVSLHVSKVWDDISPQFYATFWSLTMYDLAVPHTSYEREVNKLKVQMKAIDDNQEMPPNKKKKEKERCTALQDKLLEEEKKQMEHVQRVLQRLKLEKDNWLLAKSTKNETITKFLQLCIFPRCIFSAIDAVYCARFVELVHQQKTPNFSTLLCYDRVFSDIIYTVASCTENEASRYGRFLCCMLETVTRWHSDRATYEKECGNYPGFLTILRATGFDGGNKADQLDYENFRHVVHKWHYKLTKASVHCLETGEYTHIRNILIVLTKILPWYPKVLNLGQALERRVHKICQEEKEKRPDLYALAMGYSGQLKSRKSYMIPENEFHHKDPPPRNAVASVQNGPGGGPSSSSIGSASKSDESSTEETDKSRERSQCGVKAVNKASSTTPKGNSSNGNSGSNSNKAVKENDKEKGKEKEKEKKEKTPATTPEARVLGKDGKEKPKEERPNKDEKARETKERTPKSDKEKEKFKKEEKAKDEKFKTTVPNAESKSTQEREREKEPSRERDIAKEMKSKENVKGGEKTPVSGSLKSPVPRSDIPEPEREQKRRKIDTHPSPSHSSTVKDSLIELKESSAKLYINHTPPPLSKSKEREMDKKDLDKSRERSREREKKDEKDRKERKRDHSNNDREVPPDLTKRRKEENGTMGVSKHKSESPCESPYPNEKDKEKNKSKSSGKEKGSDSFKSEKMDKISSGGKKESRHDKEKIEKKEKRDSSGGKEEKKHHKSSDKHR
UniProt Q9BV44: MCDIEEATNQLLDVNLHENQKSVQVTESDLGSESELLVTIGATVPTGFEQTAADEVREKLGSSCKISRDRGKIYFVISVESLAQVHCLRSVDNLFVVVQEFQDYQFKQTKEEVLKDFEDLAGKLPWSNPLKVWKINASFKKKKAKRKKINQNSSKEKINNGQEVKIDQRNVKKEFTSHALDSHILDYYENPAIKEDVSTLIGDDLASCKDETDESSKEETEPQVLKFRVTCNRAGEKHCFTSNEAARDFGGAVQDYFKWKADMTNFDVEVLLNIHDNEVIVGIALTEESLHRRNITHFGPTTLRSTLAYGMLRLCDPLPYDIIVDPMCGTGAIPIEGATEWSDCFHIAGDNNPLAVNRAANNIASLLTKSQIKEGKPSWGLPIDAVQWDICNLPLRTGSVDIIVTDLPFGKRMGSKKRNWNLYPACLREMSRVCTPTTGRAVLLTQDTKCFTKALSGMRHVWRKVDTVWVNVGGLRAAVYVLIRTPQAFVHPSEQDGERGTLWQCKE
UniProt Q96J01: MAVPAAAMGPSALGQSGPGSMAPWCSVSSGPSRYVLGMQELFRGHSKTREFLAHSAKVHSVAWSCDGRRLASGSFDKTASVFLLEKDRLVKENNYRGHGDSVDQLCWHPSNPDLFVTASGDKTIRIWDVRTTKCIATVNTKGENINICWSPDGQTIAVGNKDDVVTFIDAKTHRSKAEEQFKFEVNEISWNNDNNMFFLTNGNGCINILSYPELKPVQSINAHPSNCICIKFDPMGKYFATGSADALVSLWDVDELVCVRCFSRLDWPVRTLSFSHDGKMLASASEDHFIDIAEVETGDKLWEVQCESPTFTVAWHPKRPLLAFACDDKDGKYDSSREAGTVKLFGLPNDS
UniProt P01033: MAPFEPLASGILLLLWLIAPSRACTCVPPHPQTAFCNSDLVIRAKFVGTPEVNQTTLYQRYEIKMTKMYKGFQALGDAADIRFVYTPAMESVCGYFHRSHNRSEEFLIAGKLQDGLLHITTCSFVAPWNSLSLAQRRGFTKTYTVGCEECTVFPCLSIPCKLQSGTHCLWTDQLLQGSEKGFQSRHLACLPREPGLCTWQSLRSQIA
UniProt Q96CP7: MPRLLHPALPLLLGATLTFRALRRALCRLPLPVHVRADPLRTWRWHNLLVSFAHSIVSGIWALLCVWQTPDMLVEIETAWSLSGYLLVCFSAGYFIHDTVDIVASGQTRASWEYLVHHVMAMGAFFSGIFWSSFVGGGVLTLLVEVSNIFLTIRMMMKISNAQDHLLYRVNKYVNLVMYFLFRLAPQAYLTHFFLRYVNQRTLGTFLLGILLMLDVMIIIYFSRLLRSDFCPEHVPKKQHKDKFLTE
UniProt O75347: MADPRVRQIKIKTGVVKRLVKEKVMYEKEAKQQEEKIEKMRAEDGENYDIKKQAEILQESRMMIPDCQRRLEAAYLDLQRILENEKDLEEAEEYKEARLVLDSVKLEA
UniProt O95455: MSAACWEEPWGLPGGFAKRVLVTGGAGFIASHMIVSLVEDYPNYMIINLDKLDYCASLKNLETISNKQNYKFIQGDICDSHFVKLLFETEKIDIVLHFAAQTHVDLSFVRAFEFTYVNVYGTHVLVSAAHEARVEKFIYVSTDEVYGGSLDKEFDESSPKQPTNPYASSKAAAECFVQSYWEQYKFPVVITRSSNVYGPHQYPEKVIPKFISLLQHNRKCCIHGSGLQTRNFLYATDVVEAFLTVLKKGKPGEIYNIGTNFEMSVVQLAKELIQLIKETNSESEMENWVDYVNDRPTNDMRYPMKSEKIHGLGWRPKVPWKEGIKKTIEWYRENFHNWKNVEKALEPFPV
UniProt Q8WVM0: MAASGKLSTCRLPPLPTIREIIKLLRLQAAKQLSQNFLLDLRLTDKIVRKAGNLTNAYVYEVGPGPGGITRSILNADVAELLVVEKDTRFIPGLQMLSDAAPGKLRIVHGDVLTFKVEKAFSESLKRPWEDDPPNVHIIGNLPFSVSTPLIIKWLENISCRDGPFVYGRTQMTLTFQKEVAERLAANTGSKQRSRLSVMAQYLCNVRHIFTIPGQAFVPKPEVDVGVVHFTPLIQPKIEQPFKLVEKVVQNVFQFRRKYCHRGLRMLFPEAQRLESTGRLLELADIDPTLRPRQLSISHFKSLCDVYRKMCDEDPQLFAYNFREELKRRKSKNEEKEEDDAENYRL
UniProt O43615: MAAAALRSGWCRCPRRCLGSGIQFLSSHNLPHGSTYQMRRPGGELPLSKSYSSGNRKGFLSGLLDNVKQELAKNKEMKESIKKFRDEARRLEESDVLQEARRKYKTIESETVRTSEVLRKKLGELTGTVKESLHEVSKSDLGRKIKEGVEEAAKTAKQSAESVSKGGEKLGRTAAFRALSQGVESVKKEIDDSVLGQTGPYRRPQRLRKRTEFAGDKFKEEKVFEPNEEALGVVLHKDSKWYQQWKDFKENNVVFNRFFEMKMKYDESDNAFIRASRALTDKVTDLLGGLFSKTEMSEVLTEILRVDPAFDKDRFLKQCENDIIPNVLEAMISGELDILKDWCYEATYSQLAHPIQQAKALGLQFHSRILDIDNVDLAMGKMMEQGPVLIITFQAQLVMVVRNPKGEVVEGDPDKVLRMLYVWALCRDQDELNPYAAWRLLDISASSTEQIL
UniProt Q9Y2W1: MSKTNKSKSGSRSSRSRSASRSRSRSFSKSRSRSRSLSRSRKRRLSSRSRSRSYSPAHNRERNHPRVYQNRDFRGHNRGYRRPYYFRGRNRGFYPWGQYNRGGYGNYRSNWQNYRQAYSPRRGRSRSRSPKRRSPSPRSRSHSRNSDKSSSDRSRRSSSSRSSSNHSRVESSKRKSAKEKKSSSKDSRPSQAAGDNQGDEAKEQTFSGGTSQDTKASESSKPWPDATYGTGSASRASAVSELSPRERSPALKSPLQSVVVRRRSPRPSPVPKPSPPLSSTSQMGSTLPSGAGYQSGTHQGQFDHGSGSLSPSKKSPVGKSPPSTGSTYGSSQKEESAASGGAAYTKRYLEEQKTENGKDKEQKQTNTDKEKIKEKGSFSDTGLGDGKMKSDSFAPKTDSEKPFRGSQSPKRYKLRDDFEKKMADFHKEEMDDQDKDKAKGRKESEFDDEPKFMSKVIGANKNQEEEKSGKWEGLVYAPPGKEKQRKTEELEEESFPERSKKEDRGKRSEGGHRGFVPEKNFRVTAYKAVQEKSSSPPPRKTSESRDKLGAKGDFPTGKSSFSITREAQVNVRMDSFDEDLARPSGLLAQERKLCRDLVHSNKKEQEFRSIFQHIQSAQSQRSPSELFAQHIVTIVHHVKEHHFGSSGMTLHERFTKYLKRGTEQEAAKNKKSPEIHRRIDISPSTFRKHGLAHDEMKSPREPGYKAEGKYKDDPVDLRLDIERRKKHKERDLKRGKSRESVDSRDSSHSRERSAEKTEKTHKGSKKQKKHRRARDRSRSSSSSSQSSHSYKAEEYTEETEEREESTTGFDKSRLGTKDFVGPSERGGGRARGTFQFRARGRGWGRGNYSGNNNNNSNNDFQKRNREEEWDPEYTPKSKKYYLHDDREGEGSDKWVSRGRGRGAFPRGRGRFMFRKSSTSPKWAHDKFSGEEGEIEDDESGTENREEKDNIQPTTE
UniProt Q9BSF4: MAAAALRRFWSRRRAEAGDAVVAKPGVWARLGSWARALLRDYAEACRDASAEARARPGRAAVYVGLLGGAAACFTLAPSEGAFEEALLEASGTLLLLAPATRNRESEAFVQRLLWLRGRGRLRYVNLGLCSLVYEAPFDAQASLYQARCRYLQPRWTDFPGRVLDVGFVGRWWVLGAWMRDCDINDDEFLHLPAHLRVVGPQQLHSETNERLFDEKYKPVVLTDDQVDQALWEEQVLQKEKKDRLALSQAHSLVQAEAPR
UniProt Q9BTW9: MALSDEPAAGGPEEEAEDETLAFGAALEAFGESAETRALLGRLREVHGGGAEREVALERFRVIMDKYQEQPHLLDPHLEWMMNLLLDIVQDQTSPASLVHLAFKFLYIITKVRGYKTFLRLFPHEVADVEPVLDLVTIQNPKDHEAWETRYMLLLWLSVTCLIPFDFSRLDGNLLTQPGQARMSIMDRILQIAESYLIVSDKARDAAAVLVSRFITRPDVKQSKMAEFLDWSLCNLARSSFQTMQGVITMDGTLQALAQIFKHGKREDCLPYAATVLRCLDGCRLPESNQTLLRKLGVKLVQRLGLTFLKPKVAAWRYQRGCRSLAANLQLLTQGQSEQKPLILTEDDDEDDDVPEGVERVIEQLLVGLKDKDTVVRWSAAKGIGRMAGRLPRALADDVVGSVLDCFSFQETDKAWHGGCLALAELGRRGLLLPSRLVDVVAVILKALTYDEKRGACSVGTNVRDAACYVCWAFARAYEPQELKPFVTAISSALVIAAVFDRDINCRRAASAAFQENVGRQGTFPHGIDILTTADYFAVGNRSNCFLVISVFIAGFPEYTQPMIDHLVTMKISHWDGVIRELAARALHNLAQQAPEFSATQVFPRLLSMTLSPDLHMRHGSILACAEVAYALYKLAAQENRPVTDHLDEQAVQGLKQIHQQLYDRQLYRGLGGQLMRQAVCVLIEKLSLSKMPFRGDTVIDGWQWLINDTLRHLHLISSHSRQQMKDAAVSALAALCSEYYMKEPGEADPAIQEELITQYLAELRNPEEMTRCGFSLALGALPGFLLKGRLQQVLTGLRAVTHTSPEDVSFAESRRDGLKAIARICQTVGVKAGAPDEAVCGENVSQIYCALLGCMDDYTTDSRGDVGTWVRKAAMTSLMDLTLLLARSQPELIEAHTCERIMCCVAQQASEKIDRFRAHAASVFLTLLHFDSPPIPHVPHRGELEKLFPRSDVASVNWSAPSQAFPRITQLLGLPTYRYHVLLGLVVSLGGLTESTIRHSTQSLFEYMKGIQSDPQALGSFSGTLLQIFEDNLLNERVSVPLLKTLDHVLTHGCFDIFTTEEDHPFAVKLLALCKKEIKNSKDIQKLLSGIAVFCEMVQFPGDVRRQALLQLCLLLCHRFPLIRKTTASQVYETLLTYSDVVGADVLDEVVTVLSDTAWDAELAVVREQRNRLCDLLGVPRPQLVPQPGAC

Experiments:
Experiment in all cases: log2 fold change, soluble protein after heating vs DMSO (PISA); higher = thermal stabilisation; K562 cells, 10 uM, 30 min; active = over 0.2 and 3.5 SD of the protein, either way, in both replicates (recomputed)
saracatinib = compound: CN1CCN(CCOc2cc(OC3CCOCC3)c3c(Nc4c(Cl)ccc5c4OCO5)ncnc3c2)CC1 [saracatinib]
Outline: (§1)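 Values are thermal stability changes relative to control samples and are taken from duplicates. They are stated as log2 fold changes. Before quantification by TMTpro 16plex LC-MS/MS with equalised channel sums, K562 cells at 2×10^6 cells/mL were treated with 10 μM compound for 30 min, heated in aliquots for 3 min across 48°C-58°C, pooled, extracted in PBS with 0.5% NP-40 at 4°C, and centrifuged at 21,000xg for 90 min to give the soluble supernatant.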

sotrastaurin = compound: CN1CCN(c2nc(C3=C(c4c[nH]c5ccccc45)C(=O)NC3=O)c3ccccc3n2)CC1 [sotrastaurin]
Outline: as §1

alvocidib = compound: CN1CC[C@H](c2c(O)cc(O)c3c(=O)cc(-c4ccccc4Cl)oc23)[C@H](O)C1 [alvocidib]
Outline: as §1

Tubastatin A = compound: CN1CCc2c(c3ccccc3n2Cc2ccc(C(=O)NO)cc2)C1 [Tubastatin A]
Outline: as §1

[1] = compound: CNC(=O)C1=CC=CC=C1NC2=NC(=NC=C2Cl)NC3=C(C=C(C=C3)N4CCOCC4)OC
Outline: as §1

defactinib = compound: CNC(=O)c1ccc(Nc2ncc(C(F)(F)F)c(NCc3nccnc3N(C)S(C)(=O)=O)n2)cc1 [defactinib]
Outline: as §1

rucaparib = compound: CNCc1ccc(-c2[nH]c3cc(F)cc4c3c2CCNC4=O)cc1 [rucaparib]
Outline: as §1

[2] = compound: CNc1nc(-c2ccc3c(N)n[nH]c3c2)cc(N2C[C@@H](C(=O)NC3CCCCC3)CC[C@H]2C)n1
Outline: as §1

encorafenib = compound: COC(=O)N[C@@H](C)CNc1nccc(-c2cn(C(C)C)nc2-c2cc(Cl)cc(NS(C)(=O)=O)c2F)n1 [encorafenib]
Outline: as §1

[3] = compound: COC(=O)[C@H](CCSC)NC(=O)C1=C(C=C(C=C1)NC[C@H](CS)N)C2=CC=CC=C2
Outline: as §1

| Target | log2 fold change (saracatinib) | log2 fold change (sotrastaurin) | log2 fold change (alvocidib) | log2 fold change (Tubastatin A) | log2 fold change [1] | log2 fold change (defactinib) | log2 fold change (rucaparib) | log2 fold change [2] | log2 fold change (encorafenib) | log2 fold change [3] |
| --- | --- | --- | --- | --- | --- | --- | --- | --- | --- | --- |
| THOC2 (UniProt Q8NI27) | inactive: 0.023 | inactive: -0.076 | inactive: 0.057 | inactive: 0.003 | inactive: -0.08 | inactive: -0.037 | inactive: 0.162 | inactive: -0.002 | inactive: 0.09 | inactive: -0.011 |
| THUMPD3 (UniProt Q9BV44) | inactive: 0 | inactive: -0.054 | inactive: -0.062 | inactive: -0.045 | inactive: -0.016 | inactive: -0.088 | inactive: 0.011 | inactive: 0.019 | inactive: -0.009 | inactive: -0.028 |
| THOC3 (UniProt Q96J01) | inactive: 0.07 | inactive: 0.054 | inactive: -0.101 | inactive: -0.008 | inactive: -0.049 | inactive: -0.017 | inactive: 0.028 | inactive: 0.023 | inactive: 0.002 | inactive: 0.003 |
| TCF12 isoform 3 (UniProt Q99081) | inactive: 0.028 | inactive: -0.031 | inactive: -0.126 | inactive: 0.048 | inactive: 0.042 | inactive: -0.034 | inactive: 0.057 | inactive: 0.01 | inactive: 0.029 | inactive: -0.017 |
| TBK1 (UniProt Q9UHD2) | inactive: -0.026 | inactive: -0.063 |  | inactive: -0.014 | active: 0.536 | inactive: 0.079 | inactive: 0.106 | inactive: -0.013 | inactive: 0.049 | inactive: 0.001 |
| TIA1 (UniProt P31483) | inactive: 0.046 | inactive: 0.002 | inactive: -0.061 | inactive: -0.034 | inactive: -0.006 | inactive: 0.09 | inactive: 0.03 | inactive: -0.01 | inactive: -0.035 | inactive: -0.003 |
| TFG (UniProt Q92734) | inactive: 0.023 | inactive: 0.012 | inactive: 0.016 | inactive: -0.031 | inactive: -0.009 | inactive: -0.007 | inactive: -0.001 | inactive: -0.01 | inactive: -0.036 | inactive: 0.036 |
| TIMP1 (UniProt P01033) | inactive: 0.05 | inactive: 0.108 | inactive: 0.087 | inactive: 0.005 | inactive: 0.051 | inactive: -0.063 | inactive: -0.01 | inactive: -0.024 | inactive: -0.029 | inactive: 0.025 |
| TLE3 isoform 4 (UniProt Q04726) | inactive: 0.032 | inactive: 0.017 | inactive: -0.026 | inactive: -0.046 | inactive: 0.02 | inactive: 0.007 | inactive: 0.018 | inactive: 0.023 | inactive: -0.053 | inactive: 0.011 |
| TBL2 (UniProt Q9Y4P3) | inactive: -0.074 | inactive: -0.009 | inactive: 0.155 | inactive: 0.035 | inactive: 0.039 | inactive: 0.172 | inactive: 0.348 | inactive: 0.088 | inactive: 0.124 | inactive: -0.002 |
| THOP1 (UniProt P52888) | inactive: 0.026 | inactive: 0.031 | inactive: -0.057 | inactive: 0.028 | inactive: -0.036 | inactive: -0.027 | inactive: -0.022 | inactive: -0.035 | inactive: -0.013 | inactive: 0.002 |
| TLCD1 (UniProt Q96CP7) | inactive: -0.08 | inactive: -0.004 | inactive: -0.154 | inactive: -0.017 | inactive: 0 | inactive: -0.154 | inactive: -0.02 | inactive: 0.042 | inactive: 0.063 | inactive: 0.031 |
| TIMM23 (UniProt O14925) | inactive: 0.143 | inactive: 0.028 | inactive: -0.008 | inactive: -0.009 | inactive: -0.018 | inactive: -0.064 | inactive: -0.007 | inactive: -0.028 | inactive: 0.003 | inactive: 0.027 |
| TBCA (UniProt O75347) | inactive: 0.023 | inactive: 0.063 | inactive: -0.002 | inactive: -0.034 | inactive: -0.001 | inactive: -0.013 | inactive: -0.01 | inactive: 0 | inactive: -0.038 | inactive: 0.029 |
| TGDS (UniProt O95455) | inactive: 0.1 | inactive: 0.078 | inactive: 0.042 | inactive: 0.07 | inactive: 0.047 | inactive: 0.133 |  | inactive: 0.02 |  | inactive: 0.219 |
| TFB1M (UniProt Q8WVM0) | inactive: -0.047 | inactive: 0.185 | inactive: 0.125 | inactive: 0.088 | inactive: 0.034 | inactive: 0.197 | inactive: 0.19 | inactive: -0.026 | inactive: 0.028 | inactive: -0.105 |
| TBC1D17 (UniProt Q9HA65) | inactive: -0.019 | inactive: -0.036 | inactive: -0.076 | inactive: -0.021 | inactive: -0.043 | inactive: -0.206 | inactive: -0.038 | inactive: -0.027 | inactive: 0.047 | inactive: 0.032 |
| TIMM44 (UniProt O43615) | inactive: -0.055 | inactive: -0.132 |  | inactive: -0.055 | inactive: -0.012 | inactive: -0.035 | inactive: -0.12 | inactive: -0.057 | inactive: 0.054 | inactive: 0.007 |
| THNSL1 (UniProt Q8IYQ7) | inactive: -0.005 | inactive: -0.007 | inactive: -0.104 | inactive: -0.007 | inactive: 0.056 | inactive: -0.079 | inactive: 0.011 | inactive: -0.052 | inactive: -0.016 | inactive: -0.03 |
| TBL3 (UniProt Q12788) | inactive: -0.042 | inactive: 0.044 | inactive: 0.033 | inactive: 0.048 | inactive: -0.007 | inactive: 0.069 | inactive: 0.198 | inactive: 0.12 | inactive: 0.112 | inactive: -0.034 |
| THRAP3 (UniProt Q9Y2W1) | inactive: 0.035 | inactive: 0.008 |  | inactive: 0.048 | inactive: -0.266 | inactive: -0.29 | inactive: -0.002 | inactive: -0.047 | inactive: -0.015 | inactive: 0.019 |
| THOC6 (UniProt Q86W42) | inactive: 0.003 | inactive: 0.019 | inactive: -0.057 | inactive: -0.035 | inactive: -0.067 | inactive: -0.001 | inactive: 0.043 | inactive: -0.006 | inactive: 0.031 | inactive: 0 |
| TBC1D22B (UniProt Q9NU19) | inactive: 0.078 | inactive: -0.033 | inactive: -0.144 | inactive: -0.006 | inactive: 0.012 | inactive: -0.013 | inactive: -0.209 | inactive: -0.016 | inactive: 0.225 | inactive: -0.01 |
| THADA (UniProt Q6YHU6) | inactive: 0 | inactive: -0.104 |  | inactive: 0.073 | inactive: -0.036 | inactive: -0.079 | inactive: -0.017 | inactive: 0.047 | inactive: 0.09 | inactive: -0.014 |
| TFB2M (UniProt Q9H5Q4) | inactive: -0.029 | inactive: -0.031 |  | inactive: -0.012 | inactive: 0.02 | inactive: -0.06 | inactive: -0.013 | inactive: -0.054 | inactive: -0.002 | inactive: -0.001 |
| THYN1 (UniProt Q9P016) | inactive: -0.062 | inactive: -0.022 |  | inactive: -0.006 | inactive: 0.079 | inactive: -0.002 | inactive: 0.029 | inactive: 0.072 | inactive: 0 | inactive: -0.029 |
| TFR2 (UniProt Q9UP52) | inactive: 0.007 | inactive: -0.031 |  | inactive: -0.053 | inactive: 0.006 | inactive: 0.029 | inactive: 0.029 | inactive: -0.129 | inactive: -0.015 | inactive: 0.009 |
| TIMM29 (UniProt Q9BSF4) | inactive: 0.054 | inactive: 0.051 |  | inactive: 0.003 | inactive: -0.03 | inactive: 0.1 | inactive: -0.008 | inactive: 0.002 | inactive: -0.098 | inactive: 0.13 |
| TBCD (UniProt Q9BTW9) | inactive: 0.003 | inactive: -0.056 |  | inactive: 0.05 | inactive: -0.016 | inactive: -0.056 | inactive: 0 | inactive: -0.031 | inactive: 0.018 | inactive: -0.007 |

A stretch of the results above, as a working copy:

| Target | log2 fold change (saracatinib) | log2 fold change (sotrastaurin) | log2 fold change (alvocidib) | log2 fold change (Tubastatin A) | log2 fold change [1] | log2 fold change (defactinib) | log2 fold change (rucaparib) | log2 fold change [2] | log2 fold change (encorafenib) | log2 fold change [3] |
| --- | --- | --- | --- | --- | --- | --- | --- | --- | --- | --- |
| TIA1 (UniProt P31483) | inactive: 0.046 | inactive: 0.002 | inactive: -0.061 | inactive: -0.034 | inactive: -0.006 | inactive: 0.09 | inactive: 0.03 | inactive: -0.01 | inactive: -0.035 | inactive: -0.003 |
| TFG (UniProt Q92734) | inactive: 0.023 | inactive: 0.012 | inactive: 0.016 | inactive: -0.031 | inactive: -0.009 | inactive: -0.007 | inactive: -0.001 | inactive: -0.01 | inactive: -0.036 | inactive: 0.036 |
